According to patent US9464080B2, “Substituted pyrido[2,3-d]pyrimidines for dry skin and anti-ageing application” (L'OREAL, priority 2012, dated 2016):
At least one structure is not confirmed: it was looked up by name or label, or the drawing left a doubt.

What was measured:
[1] = tested on: Ki67; assay: Ki67 immunolabelling of treated Episkin reconstructed epidermis; assay type: cell-based; details: systemic treatment over 5 days, effect generally rated for the highest concentration used (10 μM)
Method: (§1) The reconstructed epidermises, received from the Episkin company at six days of reconstruction, were placed back into culture, when received, in 3.5 ml of differentiation medium (Episkin™ medium) under insert (in emersion) in an incubator for 48 hours (37° C., 5% CO2).
(§2) The epidermises were subsequently contacted with the test compounds systemically. The Episkin™ differentiation culture medium is replaced by a differentiation medium containing the test compounds with 0.1% of final DMSO vehicle. The epidermises were placed back into culture in the incubator for 48 hours. A new systemic treatment is carried out for a further 72 hours in culture in the incubator.
For the treatment on Episkin™, each test compound was prepared at the time of use by being weighed out and dissolved at 10 mM in DMSO, then used to treat 3 samples of reconstructed epidermis. […] The positive controls used were vitamin D3, retinol and calcipotriol (a vitamin D3 analogue).
(§3) The epidermises were withdrawn (3 epidermises per treatment) for histological analysis and protein extracts (a single reconstructed epidermis is used for the histological study and the protein extract).
(§4) The samples of epidermis were enclosed in OCT for freezing in liquid nitrogen and then stored at −80° C. […]

[2] = tested on: CD44; assay: CD44 immunolabelling of treated Episkin reconstructed epidermis; assay type: cell-based; details: systemic treatment over 5 days, effect generally rated for the highest concentration used (10 μM)
Method: as §1, §2
For the treatment on Episkin™, each test compound was prepared at the time of use by being weighed out and dissolved at 10 mM in DMSO, then used to treat 3 samples of reconstructed epidermis. Furthermore, each compound under test was employed at a final 1 and […] in the culture medium (0.1% final DMSO). The positive controls used were vitamin D3, retinol and calcipotriol (a vitamin D3 analogue).
as §3, §4

Compound: C=C1CC[C@H](O)C/C1=C/C=C1\CCC[C@]2(C)[C@@H]([C@H](C)CCCC(C)C)CC[C@@H]12 [Vitamin D3, vitamin D3, reference compound]
- Ki67 [1]: 0/−
- CD44 [2]: 0/+
